# Test results from PubChem BioAssay AID2685 (National Center for Advancing Translational Sciences (NCATS), 2010).
# “And” between values parts separate entries of the source, which are not always exact repeats. Equal entries are not always repeated. Some of the results follow. Further columns of the screen follow, without active or inactive calls. Most of these compounds were active or inconclusive in the main read-out, so they are no random draw. Potencies come from curve fits of mixed quality, noted in brackets.
# Assay: qHTS Assay for Lipid Storage Modulators in Drosophila S3 Cells;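 as to cell number change: cells counted by Cell Tracker Red CMTPX staining in the red channel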
# Conditions: BODIPY lipid droplet fluorescence, 18-24 h; for cell number change: measured here: cell count max response, cells fed with added oleic acid
# Procedure, shortened: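 Drosophila S3 cells got compounds at several concentrations plus oleic acid (400 uM solution). Laser-scanning cytometry with 488 nm excitation read lipid droplets at 500-530 nm and cells at 575-640 nm. Percent activity was relative to 20 uM Triacsin C.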
# [1] = measured here: cell number channel AC50, cells fed with added oleic acid
# [2] = measured here: lipid fluorescence (Fed channel) AC50, cells fed with added oleic acid
SMILES,cell number change,AC50 [1],AC50 [2]
N=c1n(CC(=O)c2ccc(Br)cc2)c2ccccc2n1Cc1ccccc1,-43.6%,"3.26 µM [falling, single point]",
Cc1cc(N2CCOCC2)nc2ccc(NC(=O)CCC(=O)N3CCN(c4ccccc4)CC3)cc12,49.2%,"29.1 µM [rising, single point]",
CC(=O)N1c2ccc(S(=O)(=O)N3CCCC(C(=O)NCc4ccccc4Cl)C3)cc2CC1C (stereo not drawn),-15.8%,,
O=C1C(SCCO)=C(SCCO)C(=O)c2ccccc21,-95.8%,"7.31 µM [falling, partial curve]","5.17 µM [falling, full curve]"
O=C(CCSc1nc(-c2ccco2)cc(C(F)(F)F)n1)NCc1ccccn1,21.9%,,
CCOC(=O)CC1ON(C)C(=O)N1c1ccc(Cl)cc1Cl (stereo not drawn),-20.1%,,"20.6 µM [falling, single point]"
CS(=O)(=O)N(CC(=O)NC1CCCC1)c1cccc(F)c1,-2.57%,,
COCc1ccc(C(=O)OC(C)C(=O)Nc2c(C)n(C)n(-c3ccccc3)c2=O)cc1 (stereo not drawn),-3.16%,,"1.3 µM [rising, partial curve]"
COc1cc(C(=O)N2CCN=C2c2ccccc2)cc(OC)c1OC,-11.6%,,"10.3 µM [rising, partial curve, poor fit]"
c1ccc(Cc2nc3ccccc3o2)cc1,8.73%,,"0.326 µM [rising, full curve, poor fit]"
O=C(COC(=O)c1cc(C(F)(F)F)cc(C(F)(F)F)c1)NCc1ccc(Cl)cc1,92.9%,"29.1 µM [rising, single point]",
COc1ccc(OC)c2[nH]c(C(=O)N3CCC(C(=O)O)CC3)cc12,4.84%,,
COc1ccc(OC)c(S(=O)(=O)Nc2ccc3c(c2)n(C)c(=O)n3C)c1,10.8%,,"1.16 µM [rising, single point]"
Cc1onc(-c2ccccc2)c1C(=O)OCC(=O)N(C)c1c(N)n(Cc2ccccc2)c(=O)[nH]c1=O,,"2.31 µM [rising, single point]",
CC(=O)Nc1cccc(NC(=O)c2ccc(Br)cc2)c1,51.8%,,"29.1 µM [rising, single point]"
COc1ccc(/C=C/C(=O)Nc2nc(C)c(C(=O)N(C)C)s2)cc1,33.7%,"29.1 µM [rising, single point]","23.1 µM [rising, single point]"
CCCc1c(C(=O)NNc2ccc(C)cc2)cnn1-c1ccccc1,-10.3%,"0.103 µM [falling, partial curve, poor fit]",
C=CCc1ccccc1OCC(O)CN1CCN(Cc2ccc3c(c2)OCO3)CC1 (stereo not drawn),125%,"3.26 µM [rising, single point] and 20.6 µM [rising, partial curve]","5.17 µM [rising, single point] and 18.4 µM [rising, partial curve]"
O=C(COc1ccc(-c2ccccc2)cc1)N/N=C/c1cc(O)ccc1Br,-18.8%,,"29.1 µM [falling, single point]"
CC(=O)NC1(c2ccccc2)CCN(CC(=O)N2CCC(C)CC2)CC1,18.1%,,

SMILES,cell number change,AC50 [1],AC50 [2]
O=C(COc1cccnc1[N+](=O)[O-])NCCc1ccc(Cl)cc1Cl,-23.9%,,"16.4 µM [falling, partial curve]"
Cc1cccn2c(=O)c(/C=N/O)c(N3CCOCC3)nc12,,,"6.51 µM [rising, single point]"
Cc1c(C(=O)NCc2ccc3c(c2)OCO3)oc2ccc(S(=O)(=O)N3CCCCC3)cc12,51.3%,"7.31 µM [rising, partial curve]","13 µM [rising, partial curve]"
O=C(Cc1c[nH]c2ccccc12)N[C@@H](Cc1c[nH]c2ccccc12)C(=O)O,-5.9%,,"25.9 µM [rising, partial curve]"
CCCn1nc(NC(=O)CC(C)C)c2cc3ccccc3nc21,20.6%,,"4.11 µM [falling, single point]"
COc1ccc(OC)c(/C=C/C(=O)c2ccc3c(c2)OCO3)c1,-16.3%,,"20.6 µM [falling, single point]"
Cc1ccc(NC2(C(F)(F)F)N=C(c3ccccc3)NC2=O)nc1 (stereo not drawn),-16.6%,,"6.51 µM [falling, full curve, poor fit]"
CCc1noc(C)c1C(=O)Nc1cc(S(=O)(=O)N2CCOCC2)ccc1N1CCN(CC)CC1,-8.56%,"0.651 µM [falling, single point]","6.51 µM [falling, single point]"
Cc1onc(-c2c(F)cccc2Cl)c1C(=O)NCC1COc2ccccc2O1 (stereo not drawn),14.5%,,
Cc1sc2ncn(CC(=O)N3CCC(C(N)=O)CC3)c(=O)c2c1S(=O)(=O)N1CC(C)CC(C)C1 (stereo not drawn),18.5%,,"0.58 µM [falling, single point]"
COc1ccc(Nc2nc3c(c(=O)n(C)c(=O)n3C)n2CCO)cc1,16%,,"0.651 µM [falling, single point]"
CCOC(=O)Cn1nc(C)c(NC(=O)COc2ccccc2[N+](=O)[O-])c1C,36.8%,"29.1 µM [rising, single point]","5.8 µM [rising, full curve, poor fit]"
Cc1ccc(NC(=O)CN2C(=O)S/C(=C\c3cccn3-c3cccc(C(=O)O)c3)C2=O)c(C)c1,-17.7%,,"32.6 µM [falling, single point]"
Cc1nn2c(-c3ccco3)nnc2c2ccccc12,-1.84%,,"11.6 µM [falling, partial curve]"
CN1CCN(C(=O)c2cccn(Cc3cccc(Cl)c3)c2=O)CC1,-5.08%,,
CCC(=O)Nc1cccc(NC(=S)NC(=O)c2cc3ccccc3o2)c1,-56.7%,"16.4 µM [falling, single point]","29.1 µM [falling, single point]"
Cc1ccc(N2C(=O)Nc3cc(Cl)c(Cl)cc3N2O)cc1Cl,11.7%,,"0.00461 µM [rising, full curve, poor fit]"
Cn1c2c(c(=O)[nH]c1=O)C(NC(=O)c1ccco1)(C(F)(F)F)C(=O)N2 (stereo not drawn),-39.3%,"29.1 µM [falling, single point]","29.1 µM [falling, single point]"
Cc1cccc(CS(=O)(=O)c2nnc([C@H](Cc3ccccc3)NC(=O)OC(C)(C)C)o2)c1,-82%,"23.1 µM [falling, partial curve]","16.4 µM [falling, single point]"
COC(=O)Cn1c(SCc2ccccc2)nc2ccccc21,20.3%,"0.651 µM [rising, full curve, poor fit]","2.06 µM [falling, partial curve]"

SMILES,cell number change,AC50 [1],AC50 [2]
CCN(CC)C(=O)Cn1cc(S(=O)(=O)CC(=O)Nc2ccc(OC)c(OC)c2)c2ccccc21,2%,,
CCOC(=O)c1c(NC(=O)CSc2nnc(-c3ccccc3)n2CC)sc(C(C)=O)c1C,-21.1%,,"0.517 µM [rising, partial curve]"
CCOCCc1nnc(NC(=O)CS(=O)(=O)c2ccc(C)cc2)s1,22.1%,,"1.16 µM [rising, single point]"
Cc1ccccc1COc1ccc(/C=N/NC(=O)c2nnn(-c3nonc3N)c2CN2CCC(C)CC2)cc1,95%,"7.31 µM [rising, full curve]","6.51 µM [rising, single point]"
O=C(Nc1ccc2oc(-c3cccnc3)nc2c1)c1ccc([N+](=O)[O-])o1,,,"4.11 µM [falling, full curve]"
COc1ccc(-n2ccn(CC(=O)Nc3ccccc3OC)c(=O)c2=O)cc1,11.6%,,
C[N+](C)(C)CCOC(=O)C1(c2ccccc2)CCCC1,-9.51%,,
CCOC(=O)c1ccc(N2CCOCC2)c(NS(=O)(=O)c2ccc(F)cc2)c1,13.5%,,"0.461 µM [rising, full curve]"
O=C(N/N=C/c1ccco1)c1ccc2nc[nH]c2c1,-9.04%,,"0.092 µM [falling, full curve, poor fit]"
COC(=O)C1CCN(c2nc3ccccc3nc2C(C#N)C(=O)NCCc2ccccc2)CC1 (stereo not drawn),-21.4%,,"0.00461 µM [falling, full curve, poor fit]"
COc1ccc(S(=O)(=O)N(C)CC(=O)Nc2ccccc2OC)cc1C,99.2%,"16.4 µM [rising, partial curve]","23.1 µM [rising, partial curve]"
O=C(Cn1cc(F)c(=O)[nH]c1=O)NCCO,,"0.13 µM [rising, full curve, poor fit]",
COc1ccc(OC)c(NC(=O)CCCC(=O)NC2CCCCC2)c1,,,"0.146 µM [falling, full curve, poor fit]"
CC(=O)Nc1ccc(C(=O)CS(=O)(=O)c2ccc(C)cc2)cc1,19%,,
Cc1ccccc1NC(=O)c1cc(S(=O)(=O)c2ccccc2)ccc1Cl,27.5%,,"1.84 µM [rising, partial curve]"
CCc1cc2c(=O)n(CCC(C)C)c(=S)[nH]c2s1,38.6%,"4.11 µM [rising, full curve, poor fit]","2.06 µM [rising, partial curve]"
CN(C)CC(C)(C)CNS(=O)(=O)c1ccc(Cl)c(Cl)c1,2.07%,,
Cc1ccc(N2C(=O)CC(C3CCCO3)C2=O)cc1 (stereo not drawn),,"6.51 µM [falling, single point]",
Cc1cccc(OCC(=O)N/N=C/CC(C)c2ccccc2)c1C (stereo not drawn),-8.73%,,"6.51 µM [rising, single point]"
